Measured data: PubChem BioAssay AID743121 (NCATS, 2013)
Test: 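Partners whose loss is lethal together with topoisomerase I blockade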 (primary screen). System: MDA-MB-231 cells, a human breast cancer line. Knock-down reagent: single siRNA against human genes, 20 nM siRNA (0.8 pmol per well). Duration: 120 h (drug added 48 h after transfection, read 72 h later). Treatment: camptothecin 20 nM (about EC30) for 72 h; vehicle 0.1% DMSO in parallel plates. Detection: 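CellTiter-Glo ATP signal, scaled to control siRNA as percent viability; sensitisation given as log2 of untreated divided by camptothecin-treated viability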. Reading the numbers: log2 vehicle/camptothecin viability: higher = stronger sensitisation to camptothecin; viability with camptothecin: higher = more viable cells. Call rule: 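Each gene scored by redundant siRNA activity (RSA) over its individual siRNA ratios; a gene is called active at p < 0.001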.
The deposit covers about 26,000 reagents; this is a part drawn at random. Of all reagents, 167 (0.63%) got an active call. 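Calls are per gene from RSA p-values that are not deposited; an individual active-marked siRNA can sensitise only weakly.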 The numbers tell different reagents against one gene apart. Further read-outs or replicates are left out here.

| Gene | siRNA no. | log2 vehicle/camptothecin viability | viability with camptothecin (% of control) | Outcome |
| --- | --- | --- | --- | --- |
| RAB24 (GeneID 53917) | 1 | 0.204 | 92.1 | inactive |
| RAB24 (GeneID 53917) | 2 | -0.347 | 74.3 | inactive |
| RAB24 (GeneID 53917) | 3 | -0.3 | 92.9 | inactive |
| RAB24 (GeneID 53917) | 4 | -0.719 | 114 | inactive |
| KIF4B (GeneID 285643) | 1 | -0.329 | 52.8 | inactive |
| KIF4B (GeneID 285643) | 2 | -0.00596 | 83.3 | inactive |
| KIF4B (GeneID 285643) | 3 | 0.0925 | 58.5 | inactive |
| KIF4B (GeneID 285643) | 4 | -0.219 | 18.3 | inactive |
| MAPKAPK5 (GeneID 8550) | 1 | 0.0217 | 70.6 | inactive |
| MAPKAPK5 (GeneID 8550) | 2 | -0.121 | 99.4 | inactive |
| MAPKAPK5 (GeneID 8550) | 3 | -0.361 | 79.7 | inactive |
| MAPKAPK5 (GeneID 8550) | 4 | -0.394 | 42.4 | inactive |

Ordered by “log2 vehicle/camptothecin viability” (descending): 2 of the entries above.
| Gene | siRNA no. | log2 vehicle/camptothecin viability | viability with camptothecin (% of control) | Outcome |
| --- | --- | --- | --- | --- |
| MAPKAPK5 (GeneID 8550) | 1 | 0.0217 | 70.6 | inactive |
| KIF4B (GeneID 285643) | 4 | -0.219 | 18.3 | inactive |

The results go on:
| Gene | siRNA no. | log2 vehicle/camptothecin viability | viability with camptothecin (% of control) | Outcome |
| --- | --- | --- | --- | --- |
| CRIM1 (GeneID 51232) | 1 | -0.279 | 57.1 | inactive |
| CRIM1 (GeneID 51232) | 2 | -0.304 | 68.2 | inactive |
| CRIM1 (GeneID 51232) | 3 | -0.462 | 35.2 | inactive |
| CRIM1 (GeneID 51232) | 4 | -0.0956 | 97.7 | inactive |
| TNFAIP6 (GeneID 7130) | 1 | -0.263 | 104 | inactive |
| TNFAIP6 (GeneID 7130) | 2 | -0.325 | 105 | inactive |
| TNFAIP6 (GeneID 7130) | 3 | -0.491 | 80.2 | inactive |
| POLK (GeneID 51426) | 1 | 0.0432 | 57.5 | inactive |
| POLK (GeneID 51426) | 2 | -0.119 | 105 | inactive |
| POLK (GeneID 51426) | 3 | -0.428 | 103 | inactive |
| METTL1 (GeneID 4234) | 1 | 0.213 | 37 | inactive |
| METTL1 (GeneID 4234) | 2 | 0.398 | 50.7 | inactive |
| METTL1 (GeneID 4234) | 3 | -0.402 | 77.7 | inactive |
| METTL1 (GeneID 4234) | 4 | 0.0509 | 57.7 | inactive |
| CEBPB (GeneID 1051) | 1 | 0.0922 | 30.6 | inactive |
| CEBPB (GeneID 1051) | 2 | -0.409 | 130 | inactive |
| CEBPB (GeneID 1051) | 3 | 0.111 | 88.5 | inactive |
| CEBPB (GeneID 1051) | 4 | -0.173 | 89.9 | inactive |
